According to the supplement of paper PMC10849652:
The other results are listed elsewhere or left out.

Chains of the proteins cited; added tags and fusions are not shown. Lines headed by an entry give the natural chain unless they say otherwise; changes in a name come on top.
UniProt Q8N201, whole entry, looked up: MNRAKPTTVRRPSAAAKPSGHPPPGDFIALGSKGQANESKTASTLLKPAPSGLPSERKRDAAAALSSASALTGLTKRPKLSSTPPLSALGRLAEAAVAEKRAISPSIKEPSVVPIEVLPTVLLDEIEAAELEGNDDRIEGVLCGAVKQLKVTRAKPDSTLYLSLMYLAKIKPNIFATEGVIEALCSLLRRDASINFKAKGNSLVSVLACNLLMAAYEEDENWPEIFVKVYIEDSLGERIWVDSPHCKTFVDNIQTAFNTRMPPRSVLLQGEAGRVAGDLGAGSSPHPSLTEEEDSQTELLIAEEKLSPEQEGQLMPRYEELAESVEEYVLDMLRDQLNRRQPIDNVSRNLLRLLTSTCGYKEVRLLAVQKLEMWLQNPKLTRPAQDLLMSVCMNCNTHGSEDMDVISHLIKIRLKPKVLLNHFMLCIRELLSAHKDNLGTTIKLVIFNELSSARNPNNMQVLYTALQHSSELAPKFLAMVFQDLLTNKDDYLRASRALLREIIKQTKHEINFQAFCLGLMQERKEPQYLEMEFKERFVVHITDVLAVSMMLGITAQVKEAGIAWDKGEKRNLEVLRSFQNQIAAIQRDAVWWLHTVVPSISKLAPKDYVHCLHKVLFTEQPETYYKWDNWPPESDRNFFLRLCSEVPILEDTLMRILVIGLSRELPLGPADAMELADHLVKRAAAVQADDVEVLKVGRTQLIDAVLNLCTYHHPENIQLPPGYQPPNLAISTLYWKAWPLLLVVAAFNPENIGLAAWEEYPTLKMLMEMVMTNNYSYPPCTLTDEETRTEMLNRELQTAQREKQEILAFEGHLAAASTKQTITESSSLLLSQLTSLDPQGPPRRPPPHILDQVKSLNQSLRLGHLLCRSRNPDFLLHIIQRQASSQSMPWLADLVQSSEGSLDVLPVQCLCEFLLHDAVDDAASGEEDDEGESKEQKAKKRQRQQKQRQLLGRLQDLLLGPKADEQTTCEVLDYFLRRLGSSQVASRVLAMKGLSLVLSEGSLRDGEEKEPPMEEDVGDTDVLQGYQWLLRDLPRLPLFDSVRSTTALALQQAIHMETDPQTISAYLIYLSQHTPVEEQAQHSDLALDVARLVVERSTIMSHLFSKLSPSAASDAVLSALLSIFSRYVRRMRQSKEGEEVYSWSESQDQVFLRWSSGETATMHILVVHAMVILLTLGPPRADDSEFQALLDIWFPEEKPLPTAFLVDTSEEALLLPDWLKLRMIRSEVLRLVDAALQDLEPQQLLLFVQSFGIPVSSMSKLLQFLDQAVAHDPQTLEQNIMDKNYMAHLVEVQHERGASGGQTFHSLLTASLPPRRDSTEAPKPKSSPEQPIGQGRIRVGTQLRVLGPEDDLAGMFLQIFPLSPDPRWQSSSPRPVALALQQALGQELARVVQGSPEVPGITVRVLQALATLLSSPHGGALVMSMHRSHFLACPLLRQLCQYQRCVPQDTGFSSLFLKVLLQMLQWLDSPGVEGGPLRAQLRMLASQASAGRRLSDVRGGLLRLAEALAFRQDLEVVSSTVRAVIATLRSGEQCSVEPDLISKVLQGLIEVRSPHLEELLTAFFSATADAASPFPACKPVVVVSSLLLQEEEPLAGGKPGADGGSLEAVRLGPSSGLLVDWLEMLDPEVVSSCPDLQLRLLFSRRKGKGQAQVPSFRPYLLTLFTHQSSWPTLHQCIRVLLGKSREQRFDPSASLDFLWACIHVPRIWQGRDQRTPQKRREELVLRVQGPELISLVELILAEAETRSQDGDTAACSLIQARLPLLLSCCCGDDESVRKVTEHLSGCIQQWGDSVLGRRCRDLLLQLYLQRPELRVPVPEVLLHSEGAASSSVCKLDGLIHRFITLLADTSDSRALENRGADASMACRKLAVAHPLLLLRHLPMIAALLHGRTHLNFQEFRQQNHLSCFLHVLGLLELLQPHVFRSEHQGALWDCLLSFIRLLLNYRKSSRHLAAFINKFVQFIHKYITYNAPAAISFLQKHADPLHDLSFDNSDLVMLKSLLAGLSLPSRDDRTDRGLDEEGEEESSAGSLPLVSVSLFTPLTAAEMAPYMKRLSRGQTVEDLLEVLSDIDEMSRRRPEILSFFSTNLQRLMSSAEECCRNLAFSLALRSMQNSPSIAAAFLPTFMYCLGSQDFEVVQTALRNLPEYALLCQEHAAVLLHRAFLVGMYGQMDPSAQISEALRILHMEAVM
UniProt Q6UWB1, whole entry, looked up: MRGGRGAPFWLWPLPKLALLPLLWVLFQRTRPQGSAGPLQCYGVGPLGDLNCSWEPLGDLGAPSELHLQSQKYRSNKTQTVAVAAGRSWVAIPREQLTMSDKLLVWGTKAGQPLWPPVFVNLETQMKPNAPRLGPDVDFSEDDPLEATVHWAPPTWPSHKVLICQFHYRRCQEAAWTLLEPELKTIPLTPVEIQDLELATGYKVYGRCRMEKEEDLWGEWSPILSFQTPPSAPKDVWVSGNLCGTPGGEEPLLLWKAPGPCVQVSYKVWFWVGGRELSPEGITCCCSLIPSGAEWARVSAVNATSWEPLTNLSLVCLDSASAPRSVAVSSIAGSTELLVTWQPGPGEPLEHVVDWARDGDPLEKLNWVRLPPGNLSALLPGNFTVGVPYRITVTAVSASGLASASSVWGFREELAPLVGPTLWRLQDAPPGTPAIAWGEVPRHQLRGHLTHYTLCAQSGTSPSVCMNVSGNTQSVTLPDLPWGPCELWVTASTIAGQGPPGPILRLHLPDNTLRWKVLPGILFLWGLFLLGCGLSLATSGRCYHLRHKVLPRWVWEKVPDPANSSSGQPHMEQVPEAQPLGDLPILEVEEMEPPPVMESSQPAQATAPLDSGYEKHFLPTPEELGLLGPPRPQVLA
UniProt Q9Y6M1: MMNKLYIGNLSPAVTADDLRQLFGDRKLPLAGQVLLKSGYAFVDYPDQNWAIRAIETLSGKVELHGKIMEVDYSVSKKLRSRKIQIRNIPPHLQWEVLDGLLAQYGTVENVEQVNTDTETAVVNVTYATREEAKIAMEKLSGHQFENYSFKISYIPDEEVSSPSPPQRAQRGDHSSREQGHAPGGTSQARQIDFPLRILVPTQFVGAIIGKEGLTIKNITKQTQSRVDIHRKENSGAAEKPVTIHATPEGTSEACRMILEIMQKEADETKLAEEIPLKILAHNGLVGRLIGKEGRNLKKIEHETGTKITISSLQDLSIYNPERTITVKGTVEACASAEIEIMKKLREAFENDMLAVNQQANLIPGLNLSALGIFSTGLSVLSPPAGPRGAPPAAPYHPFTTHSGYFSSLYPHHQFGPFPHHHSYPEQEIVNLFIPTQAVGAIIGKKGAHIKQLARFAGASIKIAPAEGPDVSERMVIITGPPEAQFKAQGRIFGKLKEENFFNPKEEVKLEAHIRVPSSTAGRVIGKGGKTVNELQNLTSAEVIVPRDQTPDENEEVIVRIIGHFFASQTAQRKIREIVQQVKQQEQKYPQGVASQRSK
UniProt Q9H6K1: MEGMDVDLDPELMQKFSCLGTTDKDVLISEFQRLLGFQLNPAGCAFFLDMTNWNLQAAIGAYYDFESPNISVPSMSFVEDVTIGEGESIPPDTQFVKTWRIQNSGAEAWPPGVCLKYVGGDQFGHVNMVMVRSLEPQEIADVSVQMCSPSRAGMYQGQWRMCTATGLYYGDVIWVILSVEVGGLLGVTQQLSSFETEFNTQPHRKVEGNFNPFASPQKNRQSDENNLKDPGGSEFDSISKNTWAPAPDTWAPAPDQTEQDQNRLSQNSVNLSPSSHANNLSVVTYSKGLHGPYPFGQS
UniProt Q96LU5: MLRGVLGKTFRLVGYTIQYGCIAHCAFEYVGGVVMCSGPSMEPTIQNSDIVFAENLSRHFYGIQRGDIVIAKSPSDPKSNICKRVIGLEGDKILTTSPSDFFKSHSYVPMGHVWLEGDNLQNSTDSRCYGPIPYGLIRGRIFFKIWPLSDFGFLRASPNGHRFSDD
UniProt P48735: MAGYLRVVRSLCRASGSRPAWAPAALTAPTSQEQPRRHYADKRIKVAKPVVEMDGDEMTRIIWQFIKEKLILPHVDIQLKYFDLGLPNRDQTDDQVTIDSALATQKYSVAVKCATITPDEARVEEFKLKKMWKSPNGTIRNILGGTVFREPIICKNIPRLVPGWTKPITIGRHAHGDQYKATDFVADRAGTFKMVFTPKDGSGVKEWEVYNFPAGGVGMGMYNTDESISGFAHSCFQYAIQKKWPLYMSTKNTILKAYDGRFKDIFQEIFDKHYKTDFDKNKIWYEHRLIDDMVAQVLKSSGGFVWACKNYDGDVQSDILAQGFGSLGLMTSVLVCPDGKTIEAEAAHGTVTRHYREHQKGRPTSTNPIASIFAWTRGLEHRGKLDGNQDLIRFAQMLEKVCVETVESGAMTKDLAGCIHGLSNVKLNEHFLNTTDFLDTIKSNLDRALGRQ
UniProt Q659A1: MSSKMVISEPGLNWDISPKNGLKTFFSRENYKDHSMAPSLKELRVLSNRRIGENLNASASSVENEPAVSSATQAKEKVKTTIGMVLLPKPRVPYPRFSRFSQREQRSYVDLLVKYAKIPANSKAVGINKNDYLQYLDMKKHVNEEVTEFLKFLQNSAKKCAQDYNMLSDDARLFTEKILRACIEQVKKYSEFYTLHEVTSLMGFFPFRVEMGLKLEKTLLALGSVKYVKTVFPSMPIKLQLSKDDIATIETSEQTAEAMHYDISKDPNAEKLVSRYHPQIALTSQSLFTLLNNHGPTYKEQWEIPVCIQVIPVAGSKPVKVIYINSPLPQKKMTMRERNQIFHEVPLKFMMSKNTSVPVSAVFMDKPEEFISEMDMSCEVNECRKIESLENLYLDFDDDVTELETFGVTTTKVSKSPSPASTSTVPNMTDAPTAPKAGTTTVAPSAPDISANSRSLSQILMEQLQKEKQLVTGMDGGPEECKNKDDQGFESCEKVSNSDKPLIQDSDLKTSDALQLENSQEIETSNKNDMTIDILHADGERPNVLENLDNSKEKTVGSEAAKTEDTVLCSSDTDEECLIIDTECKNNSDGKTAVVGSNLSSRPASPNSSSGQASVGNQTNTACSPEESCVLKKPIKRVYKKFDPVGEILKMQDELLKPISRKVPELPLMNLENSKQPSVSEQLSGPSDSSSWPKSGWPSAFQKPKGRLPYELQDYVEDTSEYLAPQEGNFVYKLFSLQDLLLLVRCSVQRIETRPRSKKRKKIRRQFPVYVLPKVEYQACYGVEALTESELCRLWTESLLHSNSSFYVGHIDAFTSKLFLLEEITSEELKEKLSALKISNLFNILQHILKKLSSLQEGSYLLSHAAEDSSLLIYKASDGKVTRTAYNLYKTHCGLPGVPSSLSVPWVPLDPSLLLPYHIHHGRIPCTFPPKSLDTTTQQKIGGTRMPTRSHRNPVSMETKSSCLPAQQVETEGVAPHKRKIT
UniProt Q9HBG6: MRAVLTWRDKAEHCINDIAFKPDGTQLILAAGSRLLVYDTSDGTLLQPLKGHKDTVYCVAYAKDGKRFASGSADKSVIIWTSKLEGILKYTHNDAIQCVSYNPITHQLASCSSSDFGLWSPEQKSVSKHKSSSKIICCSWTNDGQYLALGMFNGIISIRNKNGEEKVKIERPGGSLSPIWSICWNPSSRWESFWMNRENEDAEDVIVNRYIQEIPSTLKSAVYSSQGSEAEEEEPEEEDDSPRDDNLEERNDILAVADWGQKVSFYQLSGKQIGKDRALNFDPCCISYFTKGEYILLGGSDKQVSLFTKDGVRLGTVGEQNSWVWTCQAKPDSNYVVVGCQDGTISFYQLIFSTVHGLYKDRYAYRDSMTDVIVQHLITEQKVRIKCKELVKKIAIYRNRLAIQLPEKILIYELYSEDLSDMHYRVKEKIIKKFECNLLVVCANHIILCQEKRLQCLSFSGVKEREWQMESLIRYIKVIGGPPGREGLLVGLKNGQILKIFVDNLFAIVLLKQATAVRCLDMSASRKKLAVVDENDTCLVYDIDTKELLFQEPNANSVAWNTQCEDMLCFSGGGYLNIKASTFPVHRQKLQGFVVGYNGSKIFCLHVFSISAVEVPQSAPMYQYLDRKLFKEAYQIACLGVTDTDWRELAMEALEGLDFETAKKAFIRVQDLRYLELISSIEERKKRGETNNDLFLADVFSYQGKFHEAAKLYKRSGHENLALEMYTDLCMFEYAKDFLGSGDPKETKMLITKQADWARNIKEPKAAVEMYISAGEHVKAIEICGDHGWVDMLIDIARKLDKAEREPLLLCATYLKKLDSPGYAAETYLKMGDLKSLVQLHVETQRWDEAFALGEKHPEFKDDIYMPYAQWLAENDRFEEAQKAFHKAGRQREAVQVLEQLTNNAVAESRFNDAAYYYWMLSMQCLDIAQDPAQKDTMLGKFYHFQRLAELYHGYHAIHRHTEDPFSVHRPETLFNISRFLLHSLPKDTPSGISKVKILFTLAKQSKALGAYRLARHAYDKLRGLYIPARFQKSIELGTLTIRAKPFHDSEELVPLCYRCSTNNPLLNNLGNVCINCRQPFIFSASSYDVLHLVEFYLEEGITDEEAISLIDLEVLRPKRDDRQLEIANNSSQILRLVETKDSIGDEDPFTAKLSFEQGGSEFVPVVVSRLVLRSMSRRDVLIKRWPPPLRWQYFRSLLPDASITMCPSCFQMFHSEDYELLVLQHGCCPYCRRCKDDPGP

Compound: Cc1cn(-c2cc(NC(=O)c3ccc(C)c(Nc4nccc(-c5cccnc5)n4)c3)cc(C(F)(F)F)c2)cn1 [nilotinib]
Assay: log2 fold change, soluble protein after heating vs DMSO (PISA); higher = thermal stabilisation; K562 lysate, 10 uM; active = over 0.2 and 3.5 SD of the protein, either way, in both replicates (recomputed)
In short: (§1)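 The values are log-two fold changes in thermal stability compared with solvent controls and come from duplicates. They were obtained by TMTpro 16plex LC-MS/MS, with channel sums equalised, on the supernatant after 21,000xg for 90 min. That supernatant came from crude K562 extract at 1 mg/mL protein treated with 10 μM compound for 30 min, heated for 3 min across 48°C-58°C, pooled and brought to 0.5% NP-40 at 4°C.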

log2 fold change, inactive:
INTS1 (UniProt Q8N201) -0.041
IL27RA (UniProt Q6UWB1) -0.069
HSPA8 (UniProt E9PN89) 0.013
IGF2BP2 (UniProt Q9Y6M1) -0.051
ILRUN (UniProt Q9H6K1) -0.12
IMMP1L (UniProt Q96LU5) -0.011
IDH2 (UniProt P48735) 0.013
ICE2 (UniProt Q659A1) -0.017
IFT122 isoform 5 (UniProt Q9HBG6) -0.001

Compound: Cc1nc(Nc2n[nH]c3c2CN(C(=O)N[C@H](CN(C)C)c2ccccc2)C3(C)C)c2sccc2n1
Assay: as above
In short: as §1

log2 fold change, inactive:
IL18 (UniProt Q14116) -0.012
IK (UniProt Q13123) 0.002
ID1 (UniProt P41134) 0.143
IGSF3 (UniProt O75054) -0.064
IMPDH2 (UniProt H0Y4R1) -0.012
HSPB11 (UniProt Q9Y547) -0.029
IBTK (UniProt Q9P2D0) -0.029
IGBP1 (UniProt P78318) -0.016
INPP4A (UniProt Q96PE3) -0.021
IGFBP4 (UniProt P22692) -0.01
INPP5B (UniProt P32019) 0.024
HTT (UniProt P42858) 0.003
HYOU1 (UniProt J3QL06) 0.064
IGHA1 (UniProt P01876) -0.033
IFT57 (UniProt Q9NWB7) -0.006
IFT74 (UniProt Q96LB3) 0.001
IDH3G (UniProt P51553) -0.032
IMPAD1 (UniProt Q9NX62) -0.036
ILF3 isoform 7 (UniProt Q12906) 0.002
HSPBAP1 (UniProt Q96EW2) 0.039
ICAM2 (UniProt P13598) -0.077
INO80E (UniProt Q8NBZ0) -0.156
IGHMBP2 (UniProt P38935) 0.018
IGHG1 (UniProt P01857) 0.049
INTS1 (UniProt Q8N201) 0.012
IL27RA (UniProt Q6UWB1) -0.08
HSPA8 (UniProt E9PN89) -0.008
IGF2BP2 (UniProt Q9Y6M1) 0.008
ILRUN (UniProt Q9H6K1) -0.038
IMMP1L (UniProt Q96LU5) 0.012
IDH2 (UniProt P48735) -0.013
ICE2 (UniProt Q659A1) -0.004
IFT122 isoform 5 (UniProt Q9HBG6) 0.194

Compound: Cc1nc(Nc2ncc(C(=O)Nc3c(C)cccc3Cl)s2)cc(N2CCN(CCO)CC2)n1 [dasatinib]
Assay: as above
In short: as §1

log2 fold change, inactive:
IL18 (UniProt Q14116) 0.035
IK (UniProt Q13123) 0.017
ID1 (UniProt P41134) 0.008
IGSF3 (UniProt O75054) 0.026
IMPDH2 (UniProt H0Y4R1) 0.004
HSPB11 (UniProt Q9Y547) 0.018
IBTK (UniProt Q9P2D0) -0.04
IGBP1 (UniProt P78318) 0.035
INPP4A (UniProt Q96PE3) 0.028
IGFBP4 (UniProt P22692) 0.085
INPP5B (UniProt P32019) -0.021
HTT (UniProt P42858) 0.001
HYOU1 (UniProt J3QL06) -0.232
IGHA1 (UniProt P01876) 0.175
IFT57 (UniProt Q9NWB7) -0.103
IFT74 (UniProt Q96LB3) -0.001
IDH3G (UniProt P51553) -0.012
IMPAD1 (UniProt Q9NX62) -0.022
ILF3 isoform 7 (UniProt Q12906) 0
HSPBAP1 (UniProt Q96EW2) 0.011
ICAM2 (UniProt P13598) 0.013
INO80E (UniProt Q8NBZ0) -0.269
IGHMBP2 (UniProt P38935) -0.067
IGHG1 (UniProt P01857) 0.081
INTS1 (UniProt Q8N201) -0.087
IL27RA (UniProt Q6UWB1) 0.11
HSPA8 (UniProt E9PN89) -0.209
IGF2BP2 (UniProt Q9Y6M1) -0.055
ILRUN (UniProt Q9H6K1) -0.003
IMMP1L (UniProt Q96LU5) 0.008
IDH2 (UniProt P48735) -0.152
ICE2 (UniProt Q659A1) -0.018
IFT122 isoform 5 (UniProt Q9HBG6) -0.226
